Measurements as given in the supplement of paper PMC11006884.
What follows is the remainder of the data, with few or none of the targets with a hit. This is a noisy data set. Only a part is listed here, and it is no random draw.

By UniProt entry, the sequences of proteins in these tests, tags left out. Where a name states a change or a piece, a line headed by the entry shows the natural chain unless it says otherwise.
UniProt Q9NU22: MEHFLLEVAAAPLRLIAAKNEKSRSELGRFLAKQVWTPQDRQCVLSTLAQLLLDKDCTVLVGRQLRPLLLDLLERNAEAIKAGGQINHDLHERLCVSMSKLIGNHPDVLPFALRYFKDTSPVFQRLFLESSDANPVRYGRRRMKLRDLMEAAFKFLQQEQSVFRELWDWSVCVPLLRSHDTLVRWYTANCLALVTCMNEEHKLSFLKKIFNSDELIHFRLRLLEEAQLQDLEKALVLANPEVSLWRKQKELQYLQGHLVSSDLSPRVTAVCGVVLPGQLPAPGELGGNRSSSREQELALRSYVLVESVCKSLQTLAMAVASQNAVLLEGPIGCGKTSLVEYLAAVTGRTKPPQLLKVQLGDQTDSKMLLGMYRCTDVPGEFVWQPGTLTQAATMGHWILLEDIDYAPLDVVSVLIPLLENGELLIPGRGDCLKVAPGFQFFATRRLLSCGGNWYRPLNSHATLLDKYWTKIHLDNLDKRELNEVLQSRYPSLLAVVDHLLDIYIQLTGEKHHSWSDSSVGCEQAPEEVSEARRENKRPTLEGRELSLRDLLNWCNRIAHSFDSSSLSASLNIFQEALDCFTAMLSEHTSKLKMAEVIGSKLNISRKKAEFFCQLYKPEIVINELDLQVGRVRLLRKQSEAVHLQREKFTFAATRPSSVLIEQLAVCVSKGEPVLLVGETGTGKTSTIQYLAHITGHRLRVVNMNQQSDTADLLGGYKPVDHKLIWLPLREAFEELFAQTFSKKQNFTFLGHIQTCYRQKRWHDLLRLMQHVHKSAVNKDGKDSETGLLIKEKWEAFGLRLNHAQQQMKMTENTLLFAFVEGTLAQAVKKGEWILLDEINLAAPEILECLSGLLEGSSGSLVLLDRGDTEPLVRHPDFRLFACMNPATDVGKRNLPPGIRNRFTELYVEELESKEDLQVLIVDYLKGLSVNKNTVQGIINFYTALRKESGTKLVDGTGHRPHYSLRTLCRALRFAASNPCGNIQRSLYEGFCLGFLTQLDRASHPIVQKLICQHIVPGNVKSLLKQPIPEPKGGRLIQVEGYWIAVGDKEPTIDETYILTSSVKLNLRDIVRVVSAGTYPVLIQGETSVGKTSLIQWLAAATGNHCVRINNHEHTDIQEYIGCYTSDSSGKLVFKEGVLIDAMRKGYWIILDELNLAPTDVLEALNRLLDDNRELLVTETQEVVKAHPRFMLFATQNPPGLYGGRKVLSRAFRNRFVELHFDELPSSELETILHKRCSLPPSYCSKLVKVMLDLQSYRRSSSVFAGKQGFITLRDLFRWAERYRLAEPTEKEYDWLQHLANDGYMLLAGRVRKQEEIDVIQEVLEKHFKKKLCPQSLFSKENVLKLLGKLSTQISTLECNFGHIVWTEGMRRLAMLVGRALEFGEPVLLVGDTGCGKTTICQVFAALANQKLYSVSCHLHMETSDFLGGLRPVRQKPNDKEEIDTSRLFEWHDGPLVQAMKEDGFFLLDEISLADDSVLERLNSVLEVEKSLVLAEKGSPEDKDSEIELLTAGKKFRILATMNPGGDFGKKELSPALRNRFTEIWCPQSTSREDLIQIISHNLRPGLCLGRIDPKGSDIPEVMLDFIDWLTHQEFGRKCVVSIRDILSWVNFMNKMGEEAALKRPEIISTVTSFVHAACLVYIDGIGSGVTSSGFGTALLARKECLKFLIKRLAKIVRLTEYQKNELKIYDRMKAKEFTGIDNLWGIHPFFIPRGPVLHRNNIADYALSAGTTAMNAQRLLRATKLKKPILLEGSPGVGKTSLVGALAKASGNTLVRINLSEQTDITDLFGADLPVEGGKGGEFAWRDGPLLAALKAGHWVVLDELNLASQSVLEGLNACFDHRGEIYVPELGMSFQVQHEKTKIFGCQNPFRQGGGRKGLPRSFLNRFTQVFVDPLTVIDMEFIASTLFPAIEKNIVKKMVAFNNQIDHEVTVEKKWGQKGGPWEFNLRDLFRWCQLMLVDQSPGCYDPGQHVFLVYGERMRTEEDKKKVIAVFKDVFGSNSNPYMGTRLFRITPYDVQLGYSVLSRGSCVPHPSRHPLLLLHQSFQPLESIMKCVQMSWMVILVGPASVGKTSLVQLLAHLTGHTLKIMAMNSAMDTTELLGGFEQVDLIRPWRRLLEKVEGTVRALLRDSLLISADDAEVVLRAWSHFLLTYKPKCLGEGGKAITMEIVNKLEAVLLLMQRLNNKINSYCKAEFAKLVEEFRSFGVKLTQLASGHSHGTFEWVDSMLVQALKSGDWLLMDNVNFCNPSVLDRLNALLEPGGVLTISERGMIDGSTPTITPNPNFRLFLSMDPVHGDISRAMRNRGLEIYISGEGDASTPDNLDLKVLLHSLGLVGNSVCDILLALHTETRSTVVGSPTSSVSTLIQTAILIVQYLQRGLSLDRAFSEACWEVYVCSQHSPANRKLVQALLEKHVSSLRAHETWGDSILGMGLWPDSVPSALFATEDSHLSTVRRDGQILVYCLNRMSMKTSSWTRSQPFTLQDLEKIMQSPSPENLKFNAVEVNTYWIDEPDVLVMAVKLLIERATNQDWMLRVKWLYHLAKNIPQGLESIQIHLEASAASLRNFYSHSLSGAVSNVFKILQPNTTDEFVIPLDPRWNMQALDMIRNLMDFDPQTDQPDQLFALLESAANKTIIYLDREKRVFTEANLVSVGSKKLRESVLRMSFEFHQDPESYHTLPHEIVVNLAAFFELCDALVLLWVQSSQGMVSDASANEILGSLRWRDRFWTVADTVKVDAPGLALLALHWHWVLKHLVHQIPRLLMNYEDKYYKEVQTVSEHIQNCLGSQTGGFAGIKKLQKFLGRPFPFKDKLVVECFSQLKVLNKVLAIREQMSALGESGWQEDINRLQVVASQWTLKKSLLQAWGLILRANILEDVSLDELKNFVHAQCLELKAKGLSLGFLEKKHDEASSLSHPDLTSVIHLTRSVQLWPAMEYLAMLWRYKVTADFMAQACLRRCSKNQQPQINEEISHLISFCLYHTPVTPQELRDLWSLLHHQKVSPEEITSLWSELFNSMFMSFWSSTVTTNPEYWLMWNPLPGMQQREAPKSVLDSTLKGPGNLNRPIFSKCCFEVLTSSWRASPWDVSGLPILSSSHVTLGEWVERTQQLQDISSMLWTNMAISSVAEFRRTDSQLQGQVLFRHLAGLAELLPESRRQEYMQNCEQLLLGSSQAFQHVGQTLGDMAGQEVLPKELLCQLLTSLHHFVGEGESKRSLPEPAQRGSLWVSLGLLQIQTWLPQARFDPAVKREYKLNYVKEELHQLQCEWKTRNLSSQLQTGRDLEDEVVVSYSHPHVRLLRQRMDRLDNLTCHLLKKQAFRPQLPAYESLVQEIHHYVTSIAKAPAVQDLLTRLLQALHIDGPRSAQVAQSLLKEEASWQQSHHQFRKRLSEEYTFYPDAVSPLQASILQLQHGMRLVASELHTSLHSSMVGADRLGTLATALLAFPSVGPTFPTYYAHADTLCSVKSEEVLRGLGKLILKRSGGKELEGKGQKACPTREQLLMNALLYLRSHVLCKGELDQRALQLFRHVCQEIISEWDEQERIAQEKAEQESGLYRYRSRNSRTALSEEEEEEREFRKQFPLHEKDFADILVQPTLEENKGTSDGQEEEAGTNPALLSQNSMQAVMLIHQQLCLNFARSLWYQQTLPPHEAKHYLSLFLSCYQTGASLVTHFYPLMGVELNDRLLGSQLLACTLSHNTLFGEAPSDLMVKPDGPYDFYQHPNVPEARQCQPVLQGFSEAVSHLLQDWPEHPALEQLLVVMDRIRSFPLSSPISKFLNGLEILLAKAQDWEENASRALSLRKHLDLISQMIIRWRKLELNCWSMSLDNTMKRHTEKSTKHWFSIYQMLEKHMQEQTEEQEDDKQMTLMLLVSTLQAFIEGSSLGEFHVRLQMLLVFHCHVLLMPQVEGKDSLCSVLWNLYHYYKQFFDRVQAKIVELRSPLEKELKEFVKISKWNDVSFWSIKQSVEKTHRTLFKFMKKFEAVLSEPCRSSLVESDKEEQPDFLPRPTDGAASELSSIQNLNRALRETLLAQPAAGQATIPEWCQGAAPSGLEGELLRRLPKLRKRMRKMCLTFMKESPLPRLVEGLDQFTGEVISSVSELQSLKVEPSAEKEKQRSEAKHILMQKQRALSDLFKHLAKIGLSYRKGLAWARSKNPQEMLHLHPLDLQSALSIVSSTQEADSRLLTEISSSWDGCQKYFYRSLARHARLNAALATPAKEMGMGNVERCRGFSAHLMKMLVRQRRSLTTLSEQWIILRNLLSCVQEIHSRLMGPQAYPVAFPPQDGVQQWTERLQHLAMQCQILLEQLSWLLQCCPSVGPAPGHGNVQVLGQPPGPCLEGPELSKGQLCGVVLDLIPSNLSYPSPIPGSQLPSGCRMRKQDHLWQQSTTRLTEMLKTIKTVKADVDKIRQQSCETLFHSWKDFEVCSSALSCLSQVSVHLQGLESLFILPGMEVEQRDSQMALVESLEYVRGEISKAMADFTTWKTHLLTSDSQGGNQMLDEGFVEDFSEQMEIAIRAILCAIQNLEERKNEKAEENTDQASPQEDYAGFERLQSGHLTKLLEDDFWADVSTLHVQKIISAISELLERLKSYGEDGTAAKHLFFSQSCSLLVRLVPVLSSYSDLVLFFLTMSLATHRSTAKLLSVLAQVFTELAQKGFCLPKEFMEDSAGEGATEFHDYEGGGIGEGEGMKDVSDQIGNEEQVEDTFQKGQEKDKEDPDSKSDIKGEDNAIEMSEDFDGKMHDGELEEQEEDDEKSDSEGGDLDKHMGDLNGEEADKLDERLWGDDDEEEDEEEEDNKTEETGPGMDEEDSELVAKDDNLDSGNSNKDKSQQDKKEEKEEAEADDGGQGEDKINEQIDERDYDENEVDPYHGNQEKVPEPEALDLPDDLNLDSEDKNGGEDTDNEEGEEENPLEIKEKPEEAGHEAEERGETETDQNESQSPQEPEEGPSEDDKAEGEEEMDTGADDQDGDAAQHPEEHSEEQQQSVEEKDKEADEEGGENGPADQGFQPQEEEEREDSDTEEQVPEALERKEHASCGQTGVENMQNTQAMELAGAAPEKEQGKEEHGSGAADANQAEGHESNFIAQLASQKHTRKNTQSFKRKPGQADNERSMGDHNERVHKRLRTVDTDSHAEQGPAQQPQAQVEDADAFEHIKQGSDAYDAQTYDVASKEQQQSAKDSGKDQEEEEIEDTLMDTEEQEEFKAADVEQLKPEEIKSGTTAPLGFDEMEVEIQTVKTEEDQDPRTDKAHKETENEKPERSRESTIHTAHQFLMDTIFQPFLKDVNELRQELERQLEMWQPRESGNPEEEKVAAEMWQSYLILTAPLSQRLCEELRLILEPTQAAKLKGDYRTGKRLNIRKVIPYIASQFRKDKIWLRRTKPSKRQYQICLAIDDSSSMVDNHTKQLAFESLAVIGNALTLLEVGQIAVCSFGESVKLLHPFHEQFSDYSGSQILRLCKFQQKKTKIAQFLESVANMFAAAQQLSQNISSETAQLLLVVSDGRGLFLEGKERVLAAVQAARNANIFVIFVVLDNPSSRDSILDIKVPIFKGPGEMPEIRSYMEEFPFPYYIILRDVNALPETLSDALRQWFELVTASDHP
UniProt Q9NRP0: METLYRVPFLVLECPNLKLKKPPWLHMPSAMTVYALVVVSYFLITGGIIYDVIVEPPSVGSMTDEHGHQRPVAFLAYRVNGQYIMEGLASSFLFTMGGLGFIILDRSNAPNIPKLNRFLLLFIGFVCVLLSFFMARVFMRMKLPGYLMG
UniProt Q9H9A6: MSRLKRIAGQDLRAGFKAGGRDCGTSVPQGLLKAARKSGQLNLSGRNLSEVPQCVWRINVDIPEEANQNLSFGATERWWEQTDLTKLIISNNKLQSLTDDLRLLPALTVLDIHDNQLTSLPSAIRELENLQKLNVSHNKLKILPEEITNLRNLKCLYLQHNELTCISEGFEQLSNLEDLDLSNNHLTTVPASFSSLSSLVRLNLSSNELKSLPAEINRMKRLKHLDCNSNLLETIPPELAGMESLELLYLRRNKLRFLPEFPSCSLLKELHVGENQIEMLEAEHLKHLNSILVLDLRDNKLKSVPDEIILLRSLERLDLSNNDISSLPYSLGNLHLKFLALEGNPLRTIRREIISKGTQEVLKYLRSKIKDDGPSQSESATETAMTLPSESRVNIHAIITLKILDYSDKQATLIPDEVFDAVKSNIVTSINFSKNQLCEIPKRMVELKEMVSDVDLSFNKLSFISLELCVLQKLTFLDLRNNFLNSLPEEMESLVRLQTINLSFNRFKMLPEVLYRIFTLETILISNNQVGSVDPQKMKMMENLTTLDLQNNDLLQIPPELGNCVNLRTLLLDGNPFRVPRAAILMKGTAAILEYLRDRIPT
UniProt Q9NP72: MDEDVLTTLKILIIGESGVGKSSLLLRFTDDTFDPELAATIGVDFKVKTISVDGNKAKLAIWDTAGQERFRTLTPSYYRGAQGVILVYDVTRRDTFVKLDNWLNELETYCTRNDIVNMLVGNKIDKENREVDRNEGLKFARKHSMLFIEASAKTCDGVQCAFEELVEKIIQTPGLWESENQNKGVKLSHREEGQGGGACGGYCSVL

compound: COC(=O)/C=C/c1ccccc1 [methyl cinnamate]; assay: log2 ratio of iodoacetamide-alkyne labeling of the cysteine site, DMSO over compound (competition); higher = stronger covalent engagement of the cysteine by the compound, active = 1 or more; settings: 500 µM; treatment time 1 h; system: HEK293T cell lysate
How it was run: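 Three replicates, each with duplicate channels, were prepared from HEK293T lysate (2 mg/mL) treated with vehicle or electrophile at 500 µM for 1 h at ambient temperature. Iodoacetamide alkyne was then applied for 1 h, and samples were clicked to sCIP-TMT reagents, pooled, trypsin-digested overnight at 37 °C, enriched on streptavidin, acid-eluted and analysed on Orbitrap Eclipse LC-MS/MS with FAIMS, with FragPipe quantification. The log2 competition ratio per cysteine is the mean control-channel divided by the mean compound-channel reporter intensity. Cysteines quantified in only one replicate were left out.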

log2 ratio of iodoacetamide-alkyne labeling, inactive:
EHMT1 C265 (UniProt Q9H9B1) -0.0759
LUC7L C44 (UniProt Q9NQ29) 0.176
EIF2B3 C334 (UniProt Q9NR50) 0.16
REEP4 C200 (UniProt Q9H6H4) 0.322
UniProt Q9HAU4_C293 -0.059
ZDBF2 C628 (UniProt Q9HCK1) 0.262
LUC7L C59 (UniProt Q9NQ29) 0.0638
ANLN C71 (UniProt Q9NQW6) 0.293
GOLPH3L C70 (UniProt Q9H4A5) 0.151
UniProt Q9NQ88_C114 0.13
VTA1 C38 (UniProt Q9NP79) 0.129
DDX31 C413 (UniProt Q9H8H2) -0.315
MDN1 C172 (UniProt Q9NU22) 0.0289
CARS2 C526 (UniProt Q9HA77) 0.207
SMC4 C271 (UniProt Q9NTJ3) -0.437
UniProt Q9HBK9_C32 0.467
MCCC2 C167 (UniProt Q9HCC0) 0.0763
GBA2 C311 (UniProt Q9HCG7) 0.0243
BCAS3 C16 (UniProt Q9H6U6) -0.456
MDN1 C4259 (UniProt Q9NU22) 0.114
EIF4ENIF1 C767 (UniProt Q9NRA8) 0.58
OSTC C14 (UniProt Q9NRP0) 0.0328
DDX21 C682 (UniProt Q9NR30) -0.0208
SENP3 C243 (UniProt Q9H4L4) 0.136
UBN1 C711 (UniProt Q9NPG3) 0.519
MDN1 C271 (UniProt Q9NU22) 0.465
DIAPH3 C868 (UniProt Q9NSV4) 0.157
CHD8 C1161 (UniProt Q9HCK8) 0.233
UniProt Q9H668_C8 -0.0359
UniProt Q9NPA3_C62 0.114
PNN C249 (UniProt Q9H307) 0.132
RANBP3 C203 (UniProt Q9H6Z4) 0.413
LRRC40 C227 (UniProt Q9H9A6) -0.081
LANCL2 C49 (UniProt Q9NS86) -0.0869
CLSPN C397 (UniProt Q9HAW4) 0.27
RAB18 C160 (UniProt Q9NP72) 0.305
EPB41L5 C385 (UniProt Q9HCM4) 0.0183

Retrieved one by one from the entries so far, 2 records:
log2 ratio of iodoacetamide-alkyne labeling, inactive:
DIAPH3 C868 (UniProt Q9NSV4) 0.157
UniProt Q9NPA3_C62 0.114
